Results are given in words; binding and its absence hold for the method and conditions named. Some results given as binding are weak or reduced against the parent protein; the word gives no strength.

Amino acid sequences for entries named in this document (tags omitted). Residues count along the entry.
UniProt P07766, residues 23-207: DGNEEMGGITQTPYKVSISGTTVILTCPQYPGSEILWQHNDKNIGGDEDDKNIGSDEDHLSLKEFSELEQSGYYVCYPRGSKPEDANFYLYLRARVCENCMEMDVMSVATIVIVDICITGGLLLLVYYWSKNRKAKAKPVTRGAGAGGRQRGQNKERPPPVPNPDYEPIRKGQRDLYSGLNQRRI

The source of these data is patent publication US20200299384A1.

Experiment [1] has as its target human CD3 expressed on cells (Jurkat cells; human CD4 T cells) (human) (UniProt P07766). Put plainly: flow cytometry on Jurkat cells. Background: A flow cytometer gives signals particle by particle.
Experiment [2] has as its target T1, Cynomolgus Monkey CD3 epsilon protein (Cynomolgus monkey) (UniProt Q95LI5).
T1 sequence (looked up): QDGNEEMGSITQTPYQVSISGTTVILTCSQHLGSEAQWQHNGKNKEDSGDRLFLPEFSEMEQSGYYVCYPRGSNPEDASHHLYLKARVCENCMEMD
Put plainly: ELISA, antigen coated on plate. (In general: In an ELISA, binding on a coated surface is turned into a signal by an enzyme label.)

The target of experiment [3] is human CD3 expressed on cells (Jurkat cells; human CD4 T cells) (human) (UniProt P07766). Put plainly: flow cytometry on human CD4 T cells.

B1: WBP3311_2.166.48 (antibody, IgG2a, V domains shown)
VH: QVQLQQSGPELVKPGASVKIACKASGYSFTTYYIHWVKQRPGQGLEWIGWIFPGNDNIKYSEKFKGKATLTADTSSSTAYMQLSSLTSEDSAVYFCAIDSVSIYYFDYWGQGTTLTVSS
VL: DIVMSQSPSSLAVSAGEKVTMSCKSSQSLLNSRTRKNYLAWYQQKPGQSPKLLIYWASTRKSGVPDRFTGSGSGTDFTLTINSVQAEDLAVYYCTQSFILRTFGGGTKLEIK
Take B1: the binding result in experiment [1] and in experiment [2] was “binds” each time.

B2: WBP3311_2.400.5 (antibody, V domains shown)
VH: QVQLQQSGPELVNPGASVKISCKASGYSFTNYYLHWVKQRPGQGLEWIGWIFPESDNTKYNEKLKGKATLTADTSSDTAYMHLSSLTFEDSAVYFCARDSVGNYFFDFWGQGTTLTVSS
VL: DIVMSQSPSSLAVSAGEKVTMRCKSSQSLVNNRTRKNYLAWYQQKPGQPPKLLIYWASTRESGVPDRFTGSGSGTDFTLTISSVQAEDLAVYYCAQSFILRTFGGGTKLEIK
In the case of B2, the binding result in experiment [1] and in experiment [2] was “binds” each time.

B3: WBP3311_2.482.5 (antibody, V domains shown)
VH: QVQLQQSGPELVKPGSSVKISCKPSGYTFTTYYIHWVKQRPGQGLEWIGWIFPGSDNIKYNENFKDKATLTADTSSSTAYMQLSSLTSEDSAVYFCARDSVSRYYFDYWGQGTILTVSS
VL: DIVMSQSPSSLAVSAGEKVTMSCKSSQSLVNDRTRKNYLAWYQQKPGLSPKLLIYWASTRESGVPDRFTGSGSGTDFTLTISSVQAEDLAVYYCAQSFILRTFGGGTKLEIK
Turning to B3, the binding result in experiment [1] and in experiment [2] was “binds” throughout.

B4: WBP3311_2.615.8 (antibody, V domains shown)
VH: QVQLQQSGPELVKPGTSMKISCKASGYSFTDFYTHWVRQRPGQGLEWIGWIFPGSDNIKYNEKFKGKATLTADTSSSTAYMQLSSLTSEDSAVYFCARDSVSVYYFDYWGQGTTLTVSS
VL: DIVMSQSPSSLAVTAGEKVTMSCKSSQSLLNIRTRKNYLAWYQQKPGQSPKLLIYWASTRDSGVPDRFTGSGSGTDFTLTISSVQAEDLAVYYCTQSFILRTFGGGTKLEIK
B4: the binding result in experiment [1] and in experiment [2] was “binds” in each case.

B5: WBP331_2.488.33 (antibody, V domains shown)
VH: QVQLQQSGPELVKPGTSVKISCKASGFSFTNYYIHWVKQRPGQGPEWIGWIFPGTVNTKYNEKFKGKATLTADTSSNTAFMQLSSLTSADSAVYFCARDSVGIYYFDFWGLGTTLTVSS
VL: DIVMSQSPSSLAVSAGEKVTVSCKSSQSLLNNRTRKNYLAWYQQKPGQSPKLLIYWASTRESGVPDRFTGSGSGTDFTLTISSVQAEDLAVYYCTQSFILRTFGGGTKLEIK
With B5, the binding entry in experiment [1] and in experiment [2] was “binds” each time.

B6: WBP3311_2.166.48-z1-uIgG1K (antibody, V domains shown)
VH: QVQLVQSGAEVKKPGSSVKVSCKASGYSFTTYYIHWVRQAPGQGLEWMGWIFPGNDNIKYSEKFKGRVTITADKSTSTAYMELSSLRSEDTAVYYCAIDSVSIYYFDYWGQGTLVTVSS
VL: DIVMTQSPDSLAVSLGERATINCKSSQSLLNSRTRKNYLAWYQQKPGQPPKLLIYWASTRKSGVPDRFSGSGSGTDFTLTISSLQAEDVAVYYCTQSFILRTFGGGTKVEIK
For B6, the binding entry in experiment [1], in experiment [3] and in experiment [2] was “binds” each time.
